Measurements reported in doi:10.1101/2023.02.28.527262.
Results are given in words; binding and its absence hold for the method and conditions named. Some binding calls cover weakened binding; strength is not graded here.

Sequences of proteins named here, by UniProt entry; tags and fusion partners are left off. A change or cut given only in a name is not applied to a line headed by its entry. A line that says so, or that is headed by a name, gives the form on record, which may keep a tag or linker.
soluble serum stimulated 2 (sST2) (Q01638, form named): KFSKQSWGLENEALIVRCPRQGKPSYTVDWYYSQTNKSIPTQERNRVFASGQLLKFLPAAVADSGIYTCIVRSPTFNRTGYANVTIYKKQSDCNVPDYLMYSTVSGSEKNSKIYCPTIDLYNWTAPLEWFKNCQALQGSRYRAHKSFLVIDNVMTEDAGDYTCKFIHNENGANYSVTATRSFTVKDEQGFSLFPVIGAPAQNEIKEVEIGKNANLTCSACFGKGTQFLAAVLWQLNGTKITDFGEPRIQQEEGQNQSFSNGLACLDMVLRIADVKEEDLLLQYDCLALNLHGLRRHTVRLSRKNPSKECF

Biological target: soluble serum stimulated 2 (sST2) (UniProt Q01638)
Test: AlphaScreen or HTRF

- binding: binds
B1: reduced interleukin-33 (IL-33^red), residues 112–270 (ligand, UniProt O95760 112-270)
chain: SITGISPITEYLASLSTYNDQSITFALEDESYEIYVEDLKKDEKKDKVLLSYYESQHPSNESGDGVDGKMLMVTLSPTKDFWLHANNKEHSVELHKCEKPLPDQAFFVLHNMHSNCVSFECKTDPGVFIGVKDNHLALIKVDSSENLCTENILFKLSET
